Some of the results follow.
compound: Cc1cn(-c2cc(NC(=O)c3ccc(C)c(Nc4nccc(-c5cccnc5)n4)c3)cc(C(F)(F)F)c2)cn1 [nilotinib]; assay: log2 fold change, soluble protein after heating vs DMSO (PISA); higher = thermal stabilisation; K562 cells, 10 uM, 30 min; active = over 0.2 and 3.5 SD of the protein, either way, in both replicates (recomputed)
Method in brief: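 K562 cells at 2×10^6 cells/mL were exposed to 10 μM compound for 30 min, then aliquots were heated for 3 min across 48°C-58°C, pooled, and extracted in PBS containing 0.5% NP-40 at 4°C. The supernatant after 21,000xg for 90 min was taken as soluble protein and measured by TMTpro 16plex LC-MS/MS with channel sums equalised. Thermal stability is reported relative to control samples, with values from duplicates. Fold changes are given on a log2 scale.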

Amino acid sequences for entries named in this document (tags omitted). A change or cut given only in a name is not applied to a line headed by its entry.
UniProt P24752: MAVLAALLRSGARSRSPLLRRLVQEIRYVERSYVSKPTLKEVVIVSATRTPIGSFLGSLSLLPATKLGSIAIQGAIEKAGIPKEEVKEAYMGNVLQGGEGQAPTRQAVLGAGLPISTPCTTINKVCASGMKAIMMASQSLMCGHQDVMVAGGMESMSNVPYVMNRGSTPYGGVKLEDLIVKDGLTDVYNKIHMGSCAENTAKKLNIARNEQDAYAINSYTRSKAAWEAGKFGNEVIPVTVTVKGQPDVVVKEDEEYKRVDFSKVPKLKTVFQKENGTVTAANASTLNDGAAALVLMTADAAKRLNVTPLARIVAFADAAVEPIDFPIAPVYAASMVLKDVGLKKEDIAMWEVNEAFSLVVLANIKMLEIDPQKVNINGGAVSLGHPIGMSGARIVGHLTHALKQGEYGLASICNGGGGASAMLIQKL
UniProt Q9NZ32, whole entry, looked up: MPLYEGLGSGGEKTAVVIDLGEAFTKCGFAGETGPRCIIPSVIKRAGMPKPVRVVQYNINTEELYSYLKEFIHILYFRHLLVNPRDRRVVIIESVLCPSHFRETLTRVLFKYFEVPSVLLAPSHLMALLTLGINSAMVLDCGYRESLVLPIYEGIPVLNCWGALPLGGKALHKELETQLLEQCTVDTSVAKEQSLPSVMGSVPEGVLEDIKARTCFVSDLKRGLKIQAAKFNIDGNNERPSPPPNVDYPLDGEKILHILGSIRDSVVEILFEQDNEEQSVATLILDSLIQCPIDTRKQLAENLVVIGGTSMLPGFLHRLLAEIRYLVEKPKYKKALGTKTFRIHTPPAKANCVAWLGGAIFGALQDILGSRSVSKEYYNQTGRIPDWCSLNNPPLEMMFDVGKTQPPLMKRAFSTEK
UniProt O14639: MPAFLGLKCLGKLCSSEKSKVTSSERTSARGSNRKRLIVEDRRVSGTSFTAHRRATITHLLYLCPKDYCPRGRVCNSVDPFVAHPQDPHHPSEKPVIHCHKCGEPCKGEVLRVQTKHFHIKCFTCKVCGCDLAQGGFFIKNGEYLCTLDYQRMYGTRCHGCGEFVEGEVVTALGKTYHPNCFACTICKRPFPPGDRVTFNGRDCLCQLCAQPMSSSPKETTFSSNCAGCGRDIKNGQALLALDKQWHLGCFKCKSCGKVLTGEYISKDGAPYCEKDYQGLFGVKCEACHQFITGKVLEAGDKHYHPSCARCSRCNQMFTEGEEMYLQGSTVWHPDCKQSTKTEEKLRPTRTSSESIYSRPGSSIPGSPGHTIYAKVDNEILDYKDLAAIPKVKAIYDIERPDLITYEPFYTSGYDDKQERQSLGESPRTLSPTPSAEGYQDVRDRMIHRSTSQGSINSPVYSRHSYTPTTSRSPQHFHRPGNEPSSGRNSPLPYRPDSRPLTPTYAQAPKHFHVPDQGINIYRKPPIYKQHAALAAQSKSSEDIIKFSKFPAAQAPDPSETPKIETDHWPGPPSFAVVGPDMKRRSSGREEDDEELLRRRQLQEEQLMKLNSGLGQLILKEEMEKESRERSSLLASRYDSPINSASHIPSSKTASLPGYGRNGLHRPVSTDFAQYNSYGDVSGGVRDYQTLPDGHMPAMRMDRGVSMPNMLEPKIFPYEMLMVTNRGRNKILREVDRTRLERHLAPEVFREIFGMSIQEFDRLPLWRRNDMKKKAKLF
UniProt Q9NUQ8: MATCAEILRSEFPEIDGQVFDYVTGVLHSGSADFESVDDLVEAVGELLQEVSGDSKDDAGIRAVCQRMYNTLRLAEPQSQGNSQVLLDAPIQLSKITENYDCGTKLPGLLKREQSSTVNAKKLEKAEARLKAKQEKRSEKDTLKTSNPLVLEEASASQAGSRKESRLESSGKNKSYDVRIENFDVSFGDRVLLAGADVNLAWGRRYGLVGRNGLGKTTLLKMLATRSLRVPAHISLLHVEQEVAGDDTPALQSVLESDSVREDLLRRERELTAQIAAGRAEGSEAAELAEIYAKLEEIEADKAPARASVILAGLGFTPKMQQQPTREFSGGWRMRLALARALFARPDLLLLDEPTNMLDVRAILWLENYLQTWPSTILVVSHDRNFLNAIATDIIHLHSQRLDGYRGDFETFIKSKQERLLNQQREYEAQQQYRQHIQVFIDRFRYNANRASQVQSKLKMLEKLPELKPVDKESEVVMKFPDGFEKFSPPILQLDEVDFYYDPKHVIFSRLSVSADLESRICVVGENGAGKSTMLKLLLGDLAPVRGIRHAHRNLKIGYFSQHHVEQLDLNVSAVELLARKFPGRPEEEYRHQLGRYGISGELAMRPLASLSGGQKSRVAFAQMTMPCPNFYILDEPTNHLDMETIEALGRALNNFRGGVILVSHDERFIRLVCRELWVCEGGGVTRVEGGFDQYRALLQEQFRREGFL
UniProt P01023, whole entry, looked up: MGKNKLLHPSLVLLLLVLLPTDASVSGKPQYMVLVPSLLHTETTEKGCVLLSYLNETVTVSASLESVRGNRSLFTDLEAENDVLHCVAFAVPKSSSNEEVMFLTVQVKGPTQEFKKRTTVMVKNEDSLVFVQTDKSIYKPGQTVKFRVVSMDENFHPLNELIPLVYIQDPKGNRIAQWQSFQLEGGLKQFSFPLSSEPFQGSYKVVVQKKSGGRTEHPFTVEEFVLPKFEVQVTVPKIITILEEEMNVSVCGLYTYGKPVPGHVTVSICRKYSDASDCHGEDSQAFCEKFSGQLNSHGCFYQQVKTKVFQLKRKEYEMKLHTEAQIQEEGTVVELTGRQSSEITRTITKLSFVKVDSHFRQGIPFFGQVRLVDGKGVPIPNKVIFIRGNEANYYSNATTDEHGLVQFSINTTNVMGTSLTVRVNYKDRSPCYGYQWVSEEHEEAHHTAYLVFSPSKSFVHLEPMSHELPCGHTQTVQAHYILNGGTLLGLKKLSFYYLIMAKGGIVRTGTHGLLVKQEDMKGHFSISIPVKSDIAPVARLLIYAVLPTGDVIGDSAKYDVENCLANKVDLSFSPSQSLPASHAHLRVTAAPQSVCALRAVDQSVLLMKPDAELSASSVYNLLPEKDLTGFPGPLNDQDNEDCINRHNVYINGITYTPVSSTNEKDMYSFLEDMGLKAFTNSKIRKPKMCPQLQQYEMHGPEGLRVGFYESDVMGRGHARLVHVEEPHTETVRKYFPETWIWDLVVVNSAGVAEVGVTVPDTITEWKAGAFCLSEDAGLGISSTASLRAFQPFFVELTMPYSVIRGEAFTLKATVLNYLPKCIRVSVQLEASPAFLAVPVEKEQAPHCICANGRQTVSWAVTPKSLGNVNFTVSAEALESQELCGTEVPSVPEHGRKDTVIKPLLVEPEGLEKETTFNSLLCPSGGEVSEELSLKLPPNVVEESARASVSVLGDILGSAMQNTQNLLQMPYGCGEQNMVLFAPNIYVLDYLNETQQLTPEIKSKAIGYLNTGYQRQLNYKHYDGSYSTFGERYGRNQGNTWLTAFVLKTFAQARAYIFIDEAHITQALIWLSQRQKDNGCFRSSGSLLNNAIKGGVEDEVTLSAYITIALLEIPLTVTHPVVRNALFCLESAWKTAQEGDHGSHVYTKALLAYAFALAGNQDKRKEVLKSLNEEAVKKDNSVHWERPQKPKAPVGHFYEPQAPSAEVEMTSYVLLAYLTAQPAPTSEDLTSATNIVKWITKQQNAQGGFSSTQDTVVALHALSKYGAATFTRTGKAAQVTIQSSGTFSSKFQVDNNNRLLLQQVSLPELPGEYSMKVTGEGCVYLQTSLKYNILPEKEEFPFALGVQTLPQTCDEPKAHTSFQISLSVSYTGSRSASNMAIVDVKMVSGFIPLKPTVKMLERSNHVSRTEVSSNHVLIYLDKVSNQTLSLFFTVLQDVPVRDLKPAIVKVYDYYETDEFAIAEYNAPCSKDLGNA
UniProt O14734: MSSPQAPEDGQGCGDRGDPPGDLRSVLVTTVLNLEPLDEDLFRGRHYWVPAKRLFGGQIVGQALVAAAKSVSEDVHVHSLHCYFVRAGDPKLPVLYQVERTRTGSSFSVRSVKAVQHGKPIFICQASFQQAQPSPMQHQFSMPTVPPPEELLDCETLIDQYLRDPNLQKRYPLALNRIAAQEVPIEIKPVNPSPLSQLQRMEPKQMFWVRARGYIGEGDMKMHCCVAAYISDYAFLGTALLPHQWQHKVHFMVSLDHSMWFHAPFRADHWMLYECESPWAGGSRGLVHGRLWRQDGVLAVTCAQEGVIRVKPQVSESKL
UniProt Q9UKU7: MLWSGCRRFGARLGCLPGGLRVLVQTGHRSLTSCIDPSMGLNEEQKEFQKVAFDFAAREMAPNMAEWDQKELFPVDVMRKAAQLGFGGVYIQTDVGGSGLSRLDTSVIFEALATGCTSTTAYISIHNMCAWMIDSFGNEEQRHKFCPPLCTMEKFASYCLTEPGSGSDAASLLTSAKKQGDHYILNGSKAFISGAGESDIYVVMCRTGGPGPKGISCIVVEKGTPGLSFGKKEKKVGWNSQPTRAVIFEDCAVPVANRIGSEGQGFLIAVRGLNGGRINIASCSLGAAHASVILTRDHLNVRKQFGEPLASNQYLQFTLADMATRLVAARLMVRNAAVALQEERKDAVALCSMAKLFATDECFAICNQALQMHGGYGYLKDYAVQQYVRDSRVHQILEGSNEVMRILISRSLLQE
UniProt O96019, whole entry, looked up: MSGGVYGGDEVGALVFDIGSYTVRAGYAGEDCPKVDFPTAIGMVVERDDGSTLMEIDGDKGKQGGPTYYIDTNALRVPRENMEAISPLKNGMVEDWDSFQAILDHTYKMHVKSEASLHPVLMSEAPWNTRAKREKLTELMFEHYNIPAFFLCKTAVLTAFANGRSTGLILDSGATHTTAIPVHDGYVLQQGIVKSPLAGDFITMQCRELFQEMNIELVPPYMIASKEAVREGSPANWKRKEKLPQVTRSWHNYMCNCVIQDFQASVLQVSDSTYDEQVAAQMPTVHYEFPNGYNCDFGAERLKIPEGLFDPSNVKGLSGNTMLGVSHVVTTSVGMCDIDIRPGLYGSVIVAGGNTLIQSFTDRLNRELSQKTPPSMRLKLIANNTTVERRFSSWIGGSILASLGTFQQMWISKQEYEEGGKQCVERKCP
UniProt O75027: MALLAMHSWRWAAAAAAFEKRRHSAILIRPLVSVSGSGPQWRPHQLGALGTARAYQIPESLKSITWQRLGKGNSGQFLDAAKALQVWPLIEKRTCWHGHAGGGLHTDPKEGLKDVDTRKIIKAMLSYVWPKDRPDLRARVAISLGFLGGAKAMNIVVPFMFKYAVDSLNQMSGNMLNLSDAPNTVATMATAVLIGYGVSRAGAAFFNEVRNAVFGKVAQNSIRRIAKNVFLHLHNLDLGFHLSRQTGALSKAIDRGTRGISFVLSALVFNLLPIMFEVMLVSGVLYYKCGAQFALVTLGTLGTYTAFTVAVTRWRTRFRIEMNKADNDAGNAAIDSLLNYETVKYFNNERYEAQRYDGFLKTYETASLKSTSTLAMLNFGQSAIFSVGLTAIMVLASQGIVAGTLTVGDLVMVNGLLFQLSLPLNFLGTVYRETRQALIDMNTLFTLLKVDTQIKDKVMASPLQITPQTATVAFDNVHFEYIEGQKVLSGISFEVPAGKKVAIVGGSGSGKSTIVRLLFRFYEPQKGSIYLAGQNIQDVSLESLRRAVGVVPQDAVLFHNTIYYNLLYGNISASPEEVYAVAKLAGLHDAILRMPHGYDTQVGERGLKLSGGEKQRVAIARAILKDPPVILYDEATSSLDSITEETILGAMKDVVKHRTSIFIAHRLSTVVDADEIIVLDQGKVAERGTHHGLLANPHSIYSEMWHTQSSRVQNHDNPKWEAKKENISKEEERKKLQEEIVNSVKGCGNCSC
UniProt Q9GZN1, whole entry, looked up: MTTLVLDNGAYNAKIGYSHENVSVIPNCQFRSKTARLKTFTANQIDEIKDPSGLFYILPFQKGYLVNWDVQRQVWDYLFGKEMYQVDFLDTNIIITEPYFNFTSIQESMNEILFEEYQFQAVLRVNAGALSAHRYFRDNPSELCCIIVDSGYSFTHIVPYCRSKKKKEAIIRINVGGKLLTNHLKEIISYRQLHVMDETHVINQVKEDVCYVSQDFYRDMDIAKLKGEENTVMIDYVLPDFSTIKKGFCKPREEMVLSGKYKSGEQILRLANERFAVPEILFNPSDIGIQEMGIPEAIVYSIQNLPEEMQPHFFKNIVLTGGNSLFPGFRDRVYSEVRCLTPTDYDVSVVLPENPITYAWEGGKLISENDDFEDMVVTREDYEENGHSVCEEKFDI
UniProt Q7Z6V5: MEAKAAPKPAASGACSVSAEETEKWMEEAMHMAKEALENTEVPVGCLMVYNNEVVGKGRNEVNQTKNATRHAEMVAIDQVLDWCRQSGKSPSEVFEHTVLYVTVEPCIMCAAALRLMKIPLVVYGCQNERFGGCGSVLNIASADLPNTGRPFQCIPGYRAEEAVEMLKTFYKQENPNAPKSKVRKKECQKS

log2 fold change, inactive:
ACACA isoform 4 (UniProt Q13085) -0.07
ACSS2 isoform 2 (UniProt Q9NR19) -0.038
ACOX1 isoform 2 (UniProt Q15067) 0.153
ACAT1 (UniProt P24752) -0.054
ACTR2 (UniProt P61160) 0.067
ACADS (UniProt P16219) 0.076
ADAM10 (UniProt O14672) 0.03
ABHD12 isoform 2 (UniProt Q8N2K0) 0.066
ADAR isoform 4 (UniProt P55265) -0.138
ACTR10 (UniProt Q9NZ32) -0.002
ABLIM1 (UniProt O14639) 0.005
ABCF3 (UniProt Q9NUQ8) -0.084
ABRAXAS2 (UniProt Q15018) -0.004
ACTA1 (UniProt P68133) 0.009
ADAM17 (UniProt P78536) 0.001
A2M (UniProt P01023) 0.045
ACADSB (UniProt P45954) 0.08
ACOT8 (UniProt O14734) 0.001
ABCC4 (UniProt O15439) 0.034
ACAD8 (UniProt Q9UKU7) -0.029
ACY1 (UniProt Q03154) 0.032
AASDHPPT (UniProt Q9NRN7) -0.021
ACTL6A (UniProt O96019) 0.007
ABCB7 isoform 2 (UniProt O75027) -0.098
ADAL (UniProt Q6DHV7) 0.005
ACTR6 (UniProt Q9GZN1) -0.045
ACO1 (UniProt P21399) 0.018
ACTR3 (UniProt P61158) 0.078
ABCD3 (UniProt P28288) 0.058
ACAA1 (UniProt P09110) 0.021
ABCE1 (UniProt P61221) 0.023
ADAT2 (UniProt Q7Z6V5) -0.014
ABCF1 (UniProt Q8NE71) 0.084
ACTN4 (UniProt O43707) 0.014
AARS (UniProt P49588) -0.047
ACTL8 (UniProt Q9H568) -0.054

Quoted at random: two records from the list.
log2 fold change, inactive:
ACSS2 isoform 2 (UniProt Q9NR19) -0.038
ACTR6 (UniProt Q9GZN1) -0.045

From the supplement of paper PMC10849652
